# Assay results from PubChem BioAssay AID504467 (National Center for Advancing Translational Sciences (NCATS), 2011).
# Screen size: about 330,000 compounds; about 7,700 (2.3%) were called active. Inconclusive results, whose numbers are uncertain, are shown with a selection of clear calls. Calls come from the whole dose curve; as a rule, active = well fitted inhibition curve with a large enough effect; inconclusive = small, poorly fitted or top-dose-only effect, or effect the other way; inactive = flat fitted curve, though single readings scatter. A potency beside an inconclusive call is a rough fit, not a confirmed value.
# Experiment: qHTS screen for small molecules that inhibit ELG1-dependent DNA repair in human embryonic kidney (HEK293T) cells expressing luciferase-tagged ELG1; note: nearly all actives have a fitted effect of over 55% in size
# Details: HEK293T ELG1-luciferase reporter, luminescence, 16 h, DNA damage induced by 5-fluorouridine; activity change, negative = inhibition: at 46.1 µM (top of the series)
# In short: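 HEK293T cells expressing luciferase-tagged ELG1 (2,000/well) received 5-Fluorouridine plus compound or DMSO for 16 hr at 37 °C. Luciferase was read by ONE-Glo luminescence after 30 min at room temperature.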
# % is set by controls: 0 for no effect and ±100 for the full control effect; potency is the fitted concentration of half-maximal effect.
Compound,Potency,"activity change, negative = inhibition"
O=C(NCCc1ccccc1)Nc1ccc(Cl)cc1,"inconclusive: 9.2 µM [activator, partial curve]",
CCN(CC(=O)NCc1cccs1)C(=O)c1ccc(-c2ccc(F)cc2)o1,"inconclusive: 11.6 µM [inhibitor, single point]",
O=C(COC(=O)/C=C/c1ccccc1)Nc1ccc(Cl)cn1,,inactive: -4.01%
O=C(N/N=C/c1cccnc1)c1ccc(F)cc1,"inconclusive: 18.3 µM [activator, single point]",
Cc1nnc2c3ccccc3c(-c3ccc(O)cc3)nn12,"inconclusive: 23.1 µM [activator, partial curve]",
COc1ccc(C(C(=O)NC2CCCC2)N(C(=O)c2ccoc2C)c2ccc(C)cc2)cc1 (stereo not given),,inactive: -5.69%
CSc1cccc(NC(=O)CSc2ncccc2C(=O)Oc2cccc([N+](=O)[O-])c2)c1,"inconclusive: 18.4 µM [activator, partial curve]",
Cc1ccc(Oc2coc3cc(OC(=O)c4cccs4)ccc3c2=O)cc1,"inconclusive: 16.4 µM [activator, single point]",
O=C(c1ccc(Br)o1)N1CCN(c2ccc3nnc(-c4ccc(F)cc4)n3n2)CC1,"inconclusive: 7.31 µM [inhibitor, partial curve, poor fit]",
CCC(=O)Nc1ccc(C(=O)NNC(=O)C2CCCCC2)cc1,,inactive: 7.16%
CCN(CC)CCCNc1nc(-c2ccccc2)nc2ccccc12,"inconclusive: 16.4 µM [inhibitor, partial curve, poor fit]",
CCn1c(=O)c(CCC(=O)N2CCN(c3ccccn3)CC2)c(C)c2c(C)nn(-c3cccc(C)c3)c21,active: 6.51 µM,
CNC(=O)N(C1=NCCCCC1)c1ccc(Br)cc1,"inconclusive: 32.6 µM [activator, partial curve, poor fit]",
O=C(Nc1ccncc1)C1CCN(S(=O)(=O)c2ccccc2)CC1,"inconclusive: 18.3 µM [activator, partial curve, poor fit]",
Cc1[nH]nc(Sc2ccccn2)c1[N+](=O)[O-],,inactive: 26.1%
COC(=O)c1ccc(-c2ncc[nH]2)cc1,"inconclusive: 29.1 µM [activator, single point]",
Cc1ccc(CNC(=O)C2CCC(CNc3c(N4CCOCC4)c(=O)c3=O)CC2)cc1 (stereo not given),"inconclusive: 16.4 µM [activator, partial curve, poor fit]",
O=C(NCCc1ccccc1)c1ccc(Cl)c([N+](=O)[O-])c1,"inconclusive: 20.6 µM [activator, partial curve]",
CC1=C(C#N)C(=O)NC(=O)/C1=C/c1ccc(-c2ccc(S(N)(=O)=O)cc2)o1,,inactive: 3.02%
O=C(NCCCN1CCOCC1)C(=O)N/N=C/c1cccc2ccccc12,,inactive: -10.2%
COCCCn1c(=N)c(C(=O)NCC2CCCO2)cc2c(=O)n3cccc(C)c3nc21 (stereo not given),"inconclusive: 4.61 µM [inhibitor, partial curve, poor fit]",
CC(C)CNC(=O)CC(=O)N/N=C/c1ccc(Br)cc1,"inconclusive: 20.6 µM [inhibitor, partial curve]",
COCCN(C(=O)c1ccco1)c1nnc(-c2ccc(F)cc2)s1,"inconclusive: 20.6 µM [activator, partial curve]",
CC(C)(C)NC(=O)NC12CC3CC(CC(C3)C1)C2,,inactive: -3.17%

Compound,Potency,"activity change, negative = inhibition"
CC1(OC(=O)CCc2ccccc2)C(=O)C=C2C=C(c3ccc(C#N)cc3)N(C(CO)CO)C=C2C1=O (stereo not given),,inactive: 24.9%
CCCc1nc2cc(CC(=O)OC)ccc2o1,"inconclusive: 29.1 µM [activator, single point]",
OC1COC(O)C(O)C1O (stereo not given),,inactive: 2.03%
O=C(NC1CC1)c1ccc(CS(=O)c2ccc(Br)cc2)o1 (stereo not given),"inconclusive: 16.4 µM [activator, single point]",
COc1cc(CO)ccc1OCc1ccc(Cl)nc1,"inconclusive: 16.4 µM [activator, partial curve]",
CC(=O)N1CCN(c2ccccc2NC(=O)COc2cc(C)ccc2C(C)C)CC1,"inconclusive: 23.1 µM [inhibitor, single point]",
COc1ccccc1CCNC(=O)C1CCC(=O)N(Cc2cccc(F)c2)C1 (stereo not given),"inconclusive: 25.9 µM [activator, single point]",
O=C(c1cc(-c2ccc(Cl)cc2Cl)on1)N1CCCC1,"inconclusive: 3.66 µM [activator, partial curve]",
Cc1cc(C)c(N=Cc2c(O)n(-c3nccs3)c(=O)c3ccccc23)c(C)c1,"inconclusive: 29.1 µM [inhibitor, single point]",
CCOC(=O)C1=C(N)Oc2c(oc(CO)cc2=O)C1c1ccccc1 (stereo not given),,inactive: -0.167%
Cc1ccc(C23CC4CC(CC(CN)(C4)C2)C3)cc1,"inconclusive: 29.1 µM [inhibitor, single point]",
O=C(N/N=C1\CCCc2c1[nH]c1ccc([N+](=O)[O-])cc21)c1ccncc1,,inactive: 2.74%
CC(=O)N1c2ccc(S(=O)(=O)NCCC(=O)Nc3ccc(C)c(Cl)c3)cc2CC1C (stereo not given),,inactive: -3.02%
CCCCOc1ccc(CSc2ncn[nH]2)cc1,"inconclusive: 5.8 µM [activator, partial curve]",
CCOC(=O)c1cc(-c2ccccc2C)n(Cc2cc(C)no2)n1,"inconclusive: 16.4 µM [inhibitor, partial curve, poor fit]",
Cc1ccc(OCc2nc(-c3ccccc3)no2)cc1,"inconclusive: 23.1 µM [activator, partial curve]",
Cc1cc(C)c2nc(N3C(=O)C(O)=C(C(=O)c4ccco4)C3c3ccco3)sc2c1 (stereo not given),,inactive: -14.6%
CCOc1ccc(-n2ccnc(SCC(=O)NC3CCCC3)c2=O)cc1,"inconclusive: 25.9 µM [inhibitor, single point]",
C/C(=N\N=c1/scc(C)n1Cc1ccco1)c1cccc([N+](=O)[O-])c1,"inconclusive: 16.4 µM [activator, single point]",
N/C(=N\OC(=O)c1ccco1)c1ccccc1,"inconclusive: 10.3 µM [activator, partial curve]",
S=C(NCc1ccccc1)NC1CCCc2ccccc21 (stereo not given),"inconclusive: 29.1 µM [inhibitor, single point]",
Cc1ccc(NS(=O)(=O)c2ccc(NC(=O)CN(c3cc([N+](=O)[O-])ccc3C)S(C)(=O)=O)cc2)c(C)c1,"inconclusive: 29.1 µM [inhibitor, single point]",
Fc1ccccc1CN1CCCN(C(=S)Nc2cccc(Cl)c2)C1,,inactive: 7.86%
COCC(=O)N(C)c1nnc(-c2cnc(C)cn2)s1,"inconclusive: 16.4 µM [activator, single point]",

Compound,Potency,"activity change, negative = inhibition"
CCOc1ccc(NC(=O)COc2ccc(-n3cnnn3)cc2)cc1,"inconclusive: 0.92 µM [activator, full curve, poor fit]",
CCOc1cc(C(=O)OCc2ccc(OC)cc2)ccc1OCC(=O)N1CCOCC1,"inconclusive: 35.5 µM [inhibitor, single point]",
Cc1sc2ncnc(SCC(=O)c3ccc4c(c3)OCCO4)c2c1-c1ccccc1,active: 10.3 µM,
O=C(CN1CCN(c2ccccc2O)CC1)Nc1cc(S(=O)(=O)N2CCCC2)ccc1Cl,"inconclusive: 29.1 µM [inhibitor, single point]",
Cc1nc(-c2ccc(C(=O)NCCO)cc2)cs1,"inconclusive: 20.6 µM [activator, partial curve]",
O=C(/C=C/c1cccnc1)c1ccc(O)cc1,"inconclusive: 29.1 µM [inhibitor, single point]",
N#Cc1ccc(C(=O)NC2CCCCCCC2)cc1,"inconclusive: 14.6 µM [activator, partial curve]",
Cc1cc(OCC(=O)N2CCC[C@@H]2C(=O)O)c2c(C)c(C)c(=O)oc2c1,,inactive: 3.53%
CCCC(C(=O)Nc1ccc2c(C)cc(=O)oc2c1)c1ccccc1 (stereo not given),"inconclusive: 29.1 µM [inhibitor, partial curve, poor fit]",
Cc1cccc2c1N1C(=O)c3c(C(=O)O)cccc3C1CC2C (stereo not given),"inconclusive: 8.2 µM [inhibitor, partial curve, poor fit]",
O=S(=O)(Cc1ccccc1)Nc1ccc(F)cc1,,inactive: -7.69%
CCOC(=O)c1c(CN2CCOCC2)n(-c2ccccc2)c2ccc(O)cc12,"inconclusive: 20.6 µM [inhibitor, single point]",
Cn1c(=O)c2cn(Cc3ccc(Cl)cc3)cc2n(C)c1=O,,inactive: -24.9%
O=C(N/N=C/c1ccc(OC(F)F)cc1OC(F)F)c1ccc(Br)cc1,"inconclusive: 29.1 µM [inhibitor, partial curve, poor fit]",
COc1ccccc1-c1cc(C(F)(F)F)nc(N2CCCCC2)n1,,inactive: 10.9%
C/C(=N\Nc1ccccn1)c1cccs1,"inconclusive: 13 µM [activator, partial curve]",
COc1cccc(/C=C2\N=C(C3CCCCC3)OC2=O)c1OC,,inactive: 1.48%
O=C1CC(N2CCC(O)(c3ccc(Cl)cc3)CC2)C(=O)N1Cc1ccc(N2CCCC2=O)cc1 (stereo not given),"inconclusive: 18.4 µM [inhibitor, single point]",
C/C(CC(O)c1ccc2ccccc2n1)=N/O (stereo not given),"inconclusive: 18.4 µM [activator, single point]",
Cc1ccc2nc(-c3ccc(NC(=O)CSCC(=O)O)cc3)sc2c1,"inconclusive: 5.8 µM [activator, partial curve]",
O=c1[nH]n(Cc2ccccc2)c(=O)c2ccccc12,"inconclusive: 25.9 µM [activator, single point]",
CCCCCCCN1C2=NCCN2c2ccccc21,"inconclusive: 18.3 µM [inhibitor, partial curve, poor fit]",

# 3 successive records from above:
Compound,Potency,"activity change, negative = inhibition"
CCCCOc1ccc(CSc2ncn[nH]2)cc1,"inconclusive: 5.8 µM [activator, partial curve]",
CCOC(=O)c1cc(-c2ccccc2C)n(Cc2cc(C)no2)n1,"inconclusive: 16.4 µM [inhibitor, partial curve, poor fit]",
Cc1ccc(OCc2nc(-c3ccccc3)no2)cc1,"inconclusive: 23.1 µM [activator, partial curve]",

# Exported bar-delimited: 2 of the compounds above.
Compound | Potency | activity change, negative = inhibition
CCCCOc1ccc(CSc2ncn[nH]2)cc1 | inconclusive: 5.8 µM [activator, partial curve] | 
CCOC(=O)c1cc(-c2ccccc2C)n(Cc2cc(C)no2)n1 | inconclusive: 16.4 µM [inhibitor, partial curve, poor fit] | 
